{"source": "paper PMC9437101", "about": "“Curcumin-based-fluorescent probes targeting ALDH1A3 as a promising tool for glioblastoma precision surgery and early diagnosis” (Communications Biology, 2022)", "test": "Chemical stability and cross reactions with biomolecules assay", "key": {"[1]": {"conditions": "probe alone diluted in SEC buffer, 10 μM"}}, "note": "“And” between values parts separate entries of the source, which are not always exact repeats. Identical values can stand only once.", "data": [{"smiles": "COc1cc(/C=C/C(O)=C/C(=O)/C=C/c2ccc(OCc3cn(CCOc4ccc(C=O)cc4)nn3)c(OC)c2)ccc1O", "note": "[Probe 10]", "values": [{"measurement": "probe fluorescence intensity (normalized)", "setting": "Cysteine 100 μM, probe 10 μM, listed as probe B", "result": "1.625 and 1.575 and 1.499"}, {"measurement": "probe fluorescence intensity (normalized)", "setting": "DMSO 15%, probe 10 μM, listed as probe B", "result": "1.775 and 1.54 and 1.432"}, {"measurement": "probe fluorescence intensity (normalized)", "setting": "FBS 0.1% v/v, probe 10 μM, listed as probe B", "result": "1.514 and 1.38 and 1.555"}, {"measurement": "probe fluorescence intensity (normalized)", "setting": "Fe(II)Cl2 100 μM, probe 10 μM, listed as probe B", "result": "0.527 and 0.4701 and 0.4219"}, {"measurement": "probe fluorescence intensity (normalized)", "setting": "Glutamate 100 μM, probe 10 μM, listed as probe B", "result": "1.425 and 1.315 and 1.347"}, {"measurement": "probe fluorescence intensity (normalized)", "setting": "Glycine 100 μM, probe 10 μM, listed as probe B", "result": "1.731 and 1.746 and 1.699"}, {"measurement": "probe fluorescence intensity (normalized)", "setting": "H2O2 100 μM, probe 10 μM, listed as probe B", "result": "1.861 and 1.755 and 1.838"}, {"measurement": "probe fluorescence intensity (normalized)", "setting": "Hepes pH= 7.0, 20 mM, probe 10 μM, listed as probe B", "result": "2.228 and 1.749 and 1.834"}, {"measurement": "probe fluorescence intensity (normalized)", "setting": "Hepes pH= 7.5, 20 mM, probe 10 μM, listed as probe B", "result": "2.088 and 1.728 and 1.48"}, {"measurement": "probe fluorescence intensity (normalized)", "setting": "Lysine 100 μM, probe 10 μM, listed as probe B", "result": "2.1854 and 2.174 and 1.79"}, {"measurement": "probe fluorescence intensity (normalized)", "setting": "MgCl2 2.5 mM, probe 10 μM, listed as probe B", "result": "2.445 and 1.42 and 1.343"}, {"measurement": "probe fluorescence intensity (normalized)", "setting": "NAD 500 μM, probe 10 μM, listed as probe B", "result": "2.023 and 1.791 and 1.594"}, {"measurement": "probe fluorescence intensity (normalized)", "setting": "NaCl 150 mM, probe 10 μM, listed as probe B", "result": "1.219 and 1.813 and 1.965"}, {"measurement": "probe fluorescence intensity (normalized)", "setting": "NaOH 100 μM, probe 10 μM, listed as probe B", "result": "1.498 and 1.488 and 1.365"}, {"measurement": "probe fluorescence intensity (normalized)", "setting": "Tris pH= 8.0, 20 mM, probe 10 μM, listed as probe B", "result": "1.765 and 1.634 and 1.695"}, {"measurement": "probe fluorescence intensity (normalized)", "setting": "Tris pH= 8.5, 20 mM, probe 10 μM, listed as probe B", "result": "1.3708 and 1.307 and 1.2219"}, {"measurement": "probe fluorescence intensity (normalized)", "setting": "Trypsine 0.05 mg/ml, probe 10 μM, listed as probe B", "result": "1.845 and 1.523 and 1.488"}, {"measurement": "probe fluorescence intensity (normalized)", "setting": "Tryptophan 100 μM, probe 10 μM, listed as probe B", "result": "2.372 and 1.933 and 1.88"}, {"measurement": "probe fluorescence intensity (normalized)", "setting": "Tyrosine 100 μM, probe 10 μM, listed as probe B", "result": "1.87 and 1.826 and 1.7708"}, {"measurement": "probe fluorescence intensity (normalized)", "setting": "ZnSO4 100 μM, probe 10 μM, listed as probe B", "result": "2.559 and 1.623 and 1.692"}, {"measurement": "probe fluorescence intensity (normalized)", "setting": "[1]", "result": "1.88 and 1.626 and 1.601"}, {"measurement": "probe fluorescence intensity (normalized)", "setting": "β-mercaptoEtOH 1 mM, probe 10 μM, listed as probe B", "result": "2.412 and 1.987 and 1.86"}]}, {"smiles": "CCOC(=O)Cn1cc(COc2ccc(/C=C/C(=O)/C=C(O)/C=C/c3ccc(O)c(OC)c3)cc2OC)nn1", "note": "[Probe 11]", "values": [{"measurement": "probe fluorescence intensity (normalized)", "setting": "Cysteine 100 μM, probe 10 μM, listed as probe A", "result": "1.599 and 1.451 and 1.353"}, {"measurement": "probe fluorescence intensity (normalized)", "setting": "DMSO 15%, probe 10 μM, listed as probe A", "result": "1.051 and 1.005 and 0.9985"}, {"measurement": "probe fluorescence intensity (normalized)", "setting": "FBS 0.1% v/v, probe 10 μM, listed as probe A", "result": "1.524 and 1.471 and 1.375"}, {"measurement": "probe fluorescence intensity (normalized)", "setting": "Fe(II)Cl2 100 μM, probe 10 μM, listed as probe A", "result": "0.4341 and 0.4478 and 0.4501"}, {"measurement": "probe fluorescence intensity (normalized)", "setting": "Glutamate 100 μM, probe 10 μM, listed as probe A", "result": "0.9414 and 0.9185 and 0.9094"}, {"measurement": "probe fluorescence intensity (normalized)", "setting": "Glycine 100 μM, probe 10 μM, listed as probe A", "result": "1.197 and 1.451 and 1.216"}, {"measurement": "probe fluorescence intensity (normalized)", "setting": "H2O2 100 μM, probe 10 μM, listed as probe A", "result": "0.9779 and 1.0853 and 1.053"}, {"measurement": "probe fluorescence intensity (normalized)", "setting": "Hepes pH= 7.0, 20 mM, probe 10 μM, listed as probe A", "result": "1.526 and 1.494 and 1.465"}, {"measurement": "probe fluorescence intensity (normalized)", "setting": "Hepes pH= 7.5, 20 mM, probe 10 μM, listed as probe A", "result": "1.248 and 1.309 and 1.704"}, {"measurement": "probe fluorescence intensity (normalized)", "setting": "KCl 150 mM, probe 10 μM, listed as probe A", "result": "0.9414 and 0.9071 and 1.106"}, {"measurement": "probe fluorescence intensity (normalized)", "setting": "Lysine 100 μM, probe 10 μM, listed as probe A", "result": "0.9733 and 0.9231 and 0.9139"}, {"measurement": "probe fluorescence intensity (normalized)", "setting": "MgCl2 2.5 mM, probe 10 μM, listed as probe A", "result": "1.094 and 0.9276 and 0.9299"}, {"measurement": "probe fluorescence intensity (normalized)", "setting": "NAD 500 μM, probe 10 μM, listed as probe A", "result": "1.302 and 1.337 and 1.177"}, {"measurement": "probe fluorescence intensity (normalized)", "setting": "NaCl 150 mM, probe 10 μM, listed as probe A", "result": "1.117 and 1.069 and 1.522"}, {"measurement": "probe fluorescence intensity (normalized)", "setting": "NaOH 100 μM, probe 10 μM, listed as probe A", "result": "1.078 and 1.172 and 0.9276"}, {"measurement": "probe fluorescence intensity (normalized)", "setting": "Tris pH= 8.0, 20 mM, probe 10 μM, listed as probe A", "result": "2.369 and 2.308 and 1.992"}, {"measurement": "probe fluorescence intensity (normalized)", "setting": "Tris pH= 8.5, 20 mM, probe 10 μM, listed as probe A", "result": "1.012 and 1.243 and 0.9825"}, {"measurement": "probe fluorescence intensity (normalized)", "setting": "Trypsine 0.05 mg/ml, probe 10 μM, listed as probe A", "result": "1.28 and 1.179 and 1.174"}, {"measurement": "probe fluorescence intensity (normalized)", "setting": "Tryptophan 100 μM, probe 10 μM, listed as probe A", "result": "1.09 and 0.9802 and 0.882"}, {"measurement": "probe fluorescence intensity (normalized)", "setting": "Tyrosine 100 μM, probe 10 μM, listed as probe A", "result": "0.8751 and 0.9162 and 0.8888"}, {"measurement": "probe fluorescence intensity (normalized)", "setting": "ZnSO4 100 μM, probe 10 μM, listed as probe A", "result": "1.06 and 0.9802 and 1.25"}, {"measurement": "probe fluorescence intensity (normalized)", "setting": "[1]", "result": "1.083 and 0.9139 and 1.003"}, {"measurement": "probe fluorescence intensity (normalized)", "setting": "β-mercaptoEtOH 1 mM, probe 10 μM, listed as probe A", "result": "1.561 and 1.661 and 1.574"}]}]}
